The text below walks through data of article PMC6296734, “The CbrB Regulon: Promoter dissection reveals novel insights into the CbrAB expression network in Pseudomonas putida”.

Construct, isoform or probe ends are uncertain for at least one entry. For some assays here: No signal at the amounts used counts as a negative. Protein sequences can lack the tags named with them. For some assays here: A weaker result is weaker than the reference pair of the same experiment.

For data set [1], the target named is T1, CbrB (UniProt A0ABM7EKZ2).
T1 sequence (looked up, limits assumed): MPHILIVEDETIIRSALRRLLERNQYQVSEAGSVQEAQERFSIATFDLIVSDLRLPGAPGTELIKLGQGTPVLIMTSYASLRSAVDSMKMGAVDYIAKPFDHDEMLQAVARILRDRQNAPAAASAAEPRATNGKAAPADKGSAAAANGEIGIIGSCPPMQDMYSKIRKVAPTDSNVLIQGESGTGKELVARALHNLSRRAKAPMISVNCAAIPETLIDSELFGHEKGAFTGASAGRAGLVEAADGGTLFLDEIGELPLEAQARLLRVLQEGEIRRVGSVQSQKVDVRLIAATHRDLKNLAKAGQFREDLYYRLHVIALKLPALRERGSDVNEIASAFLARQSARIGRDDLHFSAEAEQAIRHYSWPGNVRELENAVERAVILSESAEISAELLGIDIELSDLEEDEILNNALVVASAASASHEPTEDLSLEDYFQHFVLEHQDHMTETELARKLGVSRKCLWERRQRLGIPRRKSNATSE
The data set can be described thus: EMSA. To be noted: slightly reduced; EMSA at room temperature; recombinant protein; protein details: N-terminal His tag (pET-14b derived pMPO1229); label: 32P-dATP Klenow fill-in. A general note: In EMSA bound probe runs differently from free probe, usually more slowly.

The target of data set [2] is T2, CbrB (UniProt A0ABM7EKZ2).
T2 sequence (looked up, limits assumed): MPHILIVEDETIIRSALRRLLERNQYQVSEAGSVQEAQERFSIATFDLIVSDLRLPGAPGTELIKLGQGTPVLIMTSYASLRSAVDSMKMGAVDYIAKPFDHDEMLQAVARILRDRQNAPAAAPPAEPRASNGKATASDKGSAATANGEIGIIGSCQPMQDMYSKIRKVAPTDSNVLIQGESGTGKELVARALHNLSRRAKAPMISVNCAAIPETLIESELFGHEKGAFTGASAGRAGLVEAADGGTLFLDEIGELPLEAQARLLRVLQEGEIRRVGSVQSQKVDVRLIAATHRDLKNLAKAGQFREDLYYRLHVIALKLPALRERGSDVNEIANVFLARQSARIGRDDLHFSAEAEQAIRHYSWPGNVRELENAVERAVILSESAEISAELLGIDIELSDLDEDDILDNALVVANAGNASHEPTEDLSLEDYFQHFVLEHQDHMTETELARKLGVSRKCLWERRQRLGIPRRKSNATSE
The data set can be described thus: EMSA. To be noted: EMSA at room temperature, recombinant protein, protein details: N-terminal His tag (pET-14b derived pMPO1229), label: 32P-dCTP Klenow fill-in, probe letters rebuilt from the primers and the genome.

Data set [3] deals with T2, CbrB. The data set can be described thus: DNase I footprinting. To be noted: CbrB 0-4.9 uM, altered pattern -210 to -270; crcZ/crcY (5 nM): 35 mM Tris-acetate pH 7.9, 70 mM KAc, 20 mM NH4Ac, 2 mM MgAc2, 1 mM CaCl2, 1 mM DTT, 5% glycerol; others (1.5 nM) and footprint: 50 mM Tris-HCl pH 7.4; recombinant protein; protein details: N-terminal His tag (pET-14b derived pMPO1229); label: 32P-dCTP Klenow fill-in, top strand; probe letters rebuilt from the primers and the genome.

With “TTGTGTGGGTGAAGTGTTACCTCCCGCACATTTCTGCGACAAAAATCGGGTAACAGGGAAACAAATCGGCAGAA / TTTTCTGCCGATTTGTTTCCCTGTTACCCGATTTTTGTCGCAGAAATGTGCGGGAGGTAACACTTCACCCACAC [PcrcY R1 mutant]”, the binding result in data set [1] is listed as “binds more weakly”. Take “GGGAGCGACATGATCAACTGACCATGTCATGTGATCAACACGCAAGCCACATGCCAGAATGCGTCATAGGCGGATTACGCTAGAGAAATCAGCGAGTTGAATTTATTTATCGACTAATGCGTGCCTGGCGCCTGCACATTATTGGGAAGTAAGGAAACATGTGTTACCAAAAGATGCCTTTTAATAGTGCGCCACCTAAAGGTCTACCACTGCCACACTGAACCCTAACTATTTTTCGCTTATCCAGGCCCATGACTGACGCGAATGATTCACCCATTCTAG (double strand) [PPP2810 wt]”: the binding result in data set [2] (CbrB 0-2 uM, affinity lower than crcZ and crcY) is “binds”. With “GGGAGCGACATGATCAACTGACCATGTCATGTGATCAACACGCAAGCCACATGCCAGAATGCGTCATAGGCGGATTACGCTAGAGAAATCAGCGAGTTGAATTTATTTATCGACTAATGCGTGCCTGGCGCCTGCACATTATTGGGAAGTAAGGAAACATGGAGGCTCAAAAGATGCCTTTTAATAGTGCGCCACCTAAAGGTCTACCACTGCCACACTGAACCCTAACTATTTTTCGCTTATCCAGGCCCATGACTGACGCGAATGATTCACCCATTCTAG (double strand) [PPP2810 R1 mutant]”, the binding result in data set [2] is recorded as “no binding”. “GGGGAATTCACGCAAGGGTACGGGCCGTCCGCTGGCGGGCGCATTGGCCTTGTCGGGCACTTCGTCTTCCAGCATCTGCATCGCGTGGTTCCCGCGCAGGGCGTACGTTCAGAACTGCATCAAGGCCAATGGCAGCAGCCACTGGGTAGCAATCCACCTGGGCAGTCGCAGCTGCCATTTGTCGCGTGTCGCGCTTCACAAACTTCGCTGCAAAAACTTGGCCAGCAGAAACATTCCAAATTAAAAATGTTATTTTTCAGTAGGTTGCCATAACTTATTAAGATTAATTAGAGGATTAACCCCCACATTTGGGGGATTATCACCCAAAAAACACAAATCCTTTTCATATCAACATCTTACTGAACAATCCTGATGTCATTTAACGAATTCACGCCAGTCGGAAACTTAACGAAACCCTTGTGCCATGGCCTTCACTGCTGCTGAGCCGGACCGTACCGCCGAAACGTTCCATGATGTCTAG (double strand) [PP3420 promoter]”: in data set [2] (CbrB 0-2 uM, lowest affinity of the shifted promoters), the binding result is “binds”. Turning to “GGGTTCCATGTCGCAAATCACGCCCCGGTTCAGGGGCCGTATAACCTCAGCGCTATTCCTGTCACCGTAACGAATCTGTAACTGCTGATTCCGGTTGAGGAAACTCCCTGGTAACCCATGTCGCTGTTGTTATTTGTCGCGTACACCTGTCACTGCAGATGTCGTGCCGACTTGGCGTGAAGGGAATGCAACAAGCGTGCTCAAAATTCGCAACAGTTCATGAAATTTTCACAAAACCTGCTACCGAGGGTCGGAAAGTCCCGTAAACGCGGGGCGAAGGCTGCTTGTGTGATTTGTGCGATCGAGAATCATTAAAAATTATAAAGTTGCCCTTAGAGTCAAAGTGTTACCGCGACTTGTTCATCCAGCGTCGTTTGTGGGGTGGTCAGTGTGGGAGGGGCGGGCAGGTGGCCTCATTTTGGTGCGAAAAGTAGCGCTGTGTTACCGGGAGTGTGCAAGGTATCCTTGCTGCCCTGTTTTCCGCCTGAAGCGTCTAG (double strand) [PP1206 (oprD) promoter]”, the binding result in data set [2] (CbrB 0-2 uM) is reported as “binds”. “GGGAGCGACATGATCAACTGACCATGTCATGTGATCAACACGCAAGCCACATGCCAGAATGCGTCATAGGCGGATTACGCTAGAGAAATCAGCGAGTTGAATTTATTTATCGACTAATGCGTGCCTGGCGCCTGCACGCCGCCGGGAAGTAAGGAAACATGTGTTACCAAAAGATGCCTTTTAATAGTGCGCCACCTAAAGGTCTACCACTGCCACACTGAACCCTAACTATTTTTCGCTTATCCAGGCCCATGACTGACGCGAATGATTCACCCATTCTAG (double strand) [PPP2810 R2 mutant]”: the binding result in data set [2] (no obvious alteration) is given as “binds”.

In the case of “GGGAAAGCCTGCTTTTTTACCGCCCCTAGGGGCGGTTTTTTTATGGGTGAATCATTCGCGTCAGTCATGGGCCTGGATAAGCGAAAAATAGTTAGGGTTCAGTGTGGCAGTGGTAGACCTTTAGGTGGCGCACTATTAAAAGGCATCTTTTGGTAACACATGTTTCCTTACTTCCCAATAATGTGCAGGCGCCAGGCACGCATTAGTCGATAAATAAATTCAACTCGCTGATTTCTCTAGCGTAATCCGCCTATCTAG (double strand) [PPP2810 footprint fragment, top strand]”, the binding result in data set [3] was “binds”. Turning to “GGGAGCGACATGATCAACTGACCATGTCATGTGATCAACACGCAAGCCACATGCCAGAATGCGTCATAGGCGGATTACGCTAGAGAAATCAGCGAGTTGAATTTATTTATCGACTAATGCGTGCCTGGCGCCTGCACATTATTGGGAAGTAAGGAAACATGTGTTACCAAAAGATGCCTTCGCCGCGTGCGCCACCTAAAGGTCTACCACTGCCACACTGAACCCTAACTATTTTTCGCTTATCCAGGCCCATGACTGACGCGAATGATTCACCCATTCTAG (double strand) [PPP2810 F1 mutant]”, the binding result in data set [2] (no obvious alteration) is reported as “binds”.
